Values of other authors as cited in patent publication US20220087990A1, “APPLICATION OF RIFAMYCIN-QUINOLIZIDONE CONJUGATE MOLECULE AND PHARMACEUTICALLY ACCEPTABLE SALT THEREOF” (priority 2019, published 2022).
Like-named read-outs stand apart in the source and are kept apart here. For at least one compound, name, drawing or mass did not settle the structure.

Tests used:
[1] = tested on: Staphylococcus aureus ATCC 29213; details: agar dilution; cited from earlier work
[2] = tested on: Staphylococcus aureus ATCC 29213; details: fluid broth microdilution; cited from earlier work

| Structure (SMILES) | MIC quality control range of CLSI [1] [µg/mL] | MIC quality control range of CLSI [2] [µg/mL] |
| --- | --- | --- |
| CO[C@H]1/C=C/O[C@@]2(C)Oc3c(C)c(O)c4c(O)c(c(/C=N/N5CCN(C)CC5)c(O)c4c3C2=O)NC(=O)/C(C)=C\C=C\[C@H](C)[C@H](O)[C@@H](C)[C@@H](O)[C@@H](C)[C@H](OC(C)=O)[C@@H]1C [Rifampicin] | 0.004 to 0.015 | 0.004 to 0.015 |
| C[C@H]1COc2c(N3CCN(C)CC3)c(F)cc3c(=O)c(C(=O)O)cn1c23 [Levofloxacin] | 0.06 to 0.5 | 0.06 to 0.5 |
